Experimental data: paper PMC4455059 (Nature Communications, 2015)
Some peptides are written in HELM: one residue between dots, names in brackets for other building blocks, links after the first $.

Experiment: general procedure: Fmoc solid-phase peptide synthesis; 2-Chlorotrityl, H-Rink-Amide Chemmatrix or TentaGel S NH2
Conditions: conjugation step

## PEPTIDE1{A.N.G.R.A.[Trp2yl]}|PEPTIDE2{[Phe4yl].L.L.V.L}$PEPTIDE1,PEPTIDE1,1:R1-6:R2|PEPTIDE2,PEPTIDE2,1:R1-5:R2|PEPTIDE1,PEPTIDE2,6:R3-1:R3$$$V2.0
  conjugation yield: 2%
